{"sequences": {"note": "By UniProt entry, the sequences of proteins in these tests, tags left out. Residues count along the entry.", "UniProt Q9BYV6": "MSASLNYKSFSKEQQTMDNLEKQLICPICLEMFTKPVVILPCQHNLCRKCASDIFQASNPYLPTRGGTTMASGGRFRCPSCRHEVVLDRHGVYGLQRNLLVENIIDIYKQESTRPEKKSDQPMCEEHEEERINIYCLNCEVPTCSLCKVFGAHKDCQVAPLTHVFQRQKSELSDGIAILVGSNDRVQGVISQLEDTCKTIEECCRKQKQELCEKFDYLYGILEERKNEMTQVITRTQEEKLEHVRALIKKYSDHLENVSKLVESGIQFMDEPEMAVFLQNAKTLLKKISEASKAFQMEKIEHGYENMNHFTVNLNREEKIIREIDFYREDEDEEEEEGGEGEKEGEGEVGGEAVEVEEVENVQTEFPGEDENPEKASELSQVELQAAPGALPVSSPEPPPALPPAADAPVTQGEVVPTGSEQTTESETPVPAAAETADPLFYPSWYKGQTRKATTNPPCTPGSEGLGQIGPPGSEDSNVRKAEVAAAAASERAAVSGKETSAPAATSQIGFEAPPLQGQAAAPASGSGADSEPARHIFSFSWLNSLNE", "UniProt P37231, residues 29-505": "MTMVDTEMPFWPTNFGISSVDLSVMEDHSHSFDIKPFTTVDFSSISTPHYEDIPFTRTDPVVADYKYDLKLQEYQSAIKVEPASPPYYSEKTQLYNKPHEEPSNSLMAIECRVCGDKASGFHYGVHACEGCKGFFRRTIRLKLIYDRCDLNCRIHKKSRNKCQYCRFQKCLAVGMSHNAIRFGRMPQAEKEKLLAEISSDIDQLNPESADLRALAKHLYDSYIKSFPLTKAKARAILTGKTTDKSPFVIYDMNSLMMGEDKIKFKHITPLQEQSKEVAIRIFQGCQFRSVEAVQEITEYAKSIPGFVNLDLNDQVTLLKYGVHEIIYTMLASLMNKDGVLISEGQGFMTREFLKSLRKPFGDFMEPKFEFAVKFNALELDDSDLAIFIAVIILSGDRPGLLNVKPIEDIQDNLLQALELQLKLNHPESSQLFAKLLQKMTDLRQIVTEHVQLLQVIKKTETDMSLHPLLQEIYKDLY"}, "source": "paper PMC9898238", "biological_target": "E3 ubiquitin ligase muscle ring finger protein 2 (MuRF2), His-tagged (UniProt Q9BYV6)", "test": "co-IP; HEK293T co-transfected with His-MuRF2, HA-Ub and PPAR γ1 (wild type or mutant); MG132 20 µM for 6 h before harvest; 500 µg lysate protein precipitated with mouse anti-His antibody and protein A/G agarose at 4 °C; immunoblot with anti-PPAR γ1", "note": "No constants are given. Whether binding was seen depends on the method and setting. Binding seen in cells or lysates may run through a third protein. Some entries that bind do so weakly or less than the wild type."}
{"substance": "Peroxisome proliferator-activated receptor gamma 1 (PPAR γ1) (from UniProt P37231-2 1-477)", "values": [{"measurement": "binding", "result": "binds"}]}
